Measurements: the supplement of paper PMC10849652
The other results are listed elsewhere or left out.

By UniProt entry, the sequences of proteins in these tests, tags left out. Where a name states a change or a piece, a line headed by the entry shows the natural chain unless it says otherwise.
UniProt Q86YP4: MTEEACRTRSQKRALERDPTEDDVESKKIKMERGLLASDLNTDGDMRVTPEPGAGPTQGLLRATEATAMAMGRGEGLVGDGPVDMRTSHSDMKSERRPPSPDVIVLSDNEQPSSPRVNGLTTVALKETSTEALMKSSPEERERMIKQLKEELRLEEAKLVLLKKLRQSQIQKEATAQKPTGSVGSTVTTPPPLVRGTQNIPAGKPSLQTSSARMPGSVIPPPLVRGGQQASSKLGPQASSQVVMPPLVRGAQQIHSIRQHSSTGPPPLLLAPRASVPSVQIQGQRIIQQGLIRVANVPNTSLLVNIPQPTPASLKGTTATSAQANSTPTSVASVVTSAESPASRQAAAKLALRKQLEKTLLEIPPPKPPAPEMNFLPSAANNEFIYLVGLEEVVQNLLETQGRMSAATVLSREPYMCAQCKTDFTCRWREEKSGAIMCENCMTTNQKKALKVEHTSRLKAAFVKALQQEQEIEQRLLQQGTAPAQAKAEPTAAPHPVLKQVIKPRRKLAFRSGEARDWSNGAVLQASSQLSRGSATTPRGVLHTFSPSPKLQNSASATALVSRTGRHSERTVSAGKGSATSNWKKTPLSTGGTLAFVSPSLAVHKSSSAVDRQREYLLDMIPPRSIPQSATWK
UniProt Q9BQS8: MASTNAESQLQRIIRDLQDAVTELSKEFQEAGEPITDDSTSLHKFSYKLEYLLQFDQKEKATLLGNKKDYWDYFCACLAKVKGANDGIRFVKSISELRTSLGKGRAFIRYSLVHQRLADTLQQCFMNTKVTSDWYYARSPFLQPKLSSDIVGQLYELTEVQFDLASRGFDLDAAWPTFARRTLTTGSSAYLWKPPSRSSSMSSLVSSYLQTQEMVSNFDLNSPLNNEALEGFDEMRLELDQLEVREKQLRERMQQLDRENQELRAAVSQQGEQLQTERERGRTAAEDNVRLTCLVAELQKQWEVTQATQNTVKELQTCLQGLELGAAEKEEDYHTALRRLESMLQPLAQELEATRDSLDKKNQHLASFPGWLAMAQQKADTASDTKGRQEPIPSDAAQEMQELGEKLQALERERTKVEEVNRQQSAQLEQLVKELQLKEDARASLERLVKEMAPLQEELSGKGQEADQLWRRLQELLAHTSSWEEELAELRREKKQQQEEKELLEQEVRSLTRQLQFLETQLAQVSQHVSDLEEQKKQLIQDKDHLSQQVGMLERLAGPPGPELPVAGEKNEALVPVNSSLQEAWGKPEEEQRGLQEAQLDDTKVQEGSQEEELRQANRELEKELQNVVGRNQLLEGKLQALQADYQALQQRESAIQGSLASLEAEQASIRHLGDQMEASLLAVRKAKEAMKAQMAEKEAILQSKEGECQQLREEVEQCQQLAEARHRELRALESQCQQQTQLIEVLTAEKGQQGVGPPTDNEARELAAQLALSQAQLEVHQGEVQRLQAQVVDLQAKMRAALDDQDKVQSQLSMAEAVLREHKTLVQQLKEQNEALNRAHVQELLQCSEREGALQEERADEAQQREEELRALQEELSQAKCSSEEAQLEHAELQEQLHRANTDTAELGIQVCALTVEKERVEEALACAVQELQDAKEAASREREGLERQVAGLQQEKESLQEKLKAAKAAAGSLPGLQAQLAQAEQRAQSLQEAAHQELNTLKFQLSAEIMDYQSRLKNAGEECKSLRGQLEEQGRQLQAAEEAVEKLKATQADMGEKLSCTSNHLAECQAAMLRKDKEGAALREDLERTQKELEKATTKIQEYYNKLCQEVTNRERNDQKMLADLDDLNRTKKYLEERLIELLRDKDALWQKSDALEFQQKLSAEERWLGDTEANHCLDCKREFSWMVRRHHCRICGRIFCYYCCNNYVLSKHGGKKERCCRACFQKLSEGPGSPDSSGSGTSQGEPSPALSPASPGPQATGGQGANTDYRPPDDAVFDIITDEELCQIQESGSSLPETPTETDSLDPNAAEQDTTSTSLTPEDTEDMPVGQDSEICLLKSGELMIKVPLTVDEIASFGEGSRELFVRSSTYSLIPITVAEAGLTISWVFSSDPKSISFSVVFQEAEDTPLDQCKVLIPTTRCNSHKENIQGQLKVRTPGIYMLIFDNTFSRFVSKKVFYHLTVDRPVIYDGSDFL
UniProt Q9UN86: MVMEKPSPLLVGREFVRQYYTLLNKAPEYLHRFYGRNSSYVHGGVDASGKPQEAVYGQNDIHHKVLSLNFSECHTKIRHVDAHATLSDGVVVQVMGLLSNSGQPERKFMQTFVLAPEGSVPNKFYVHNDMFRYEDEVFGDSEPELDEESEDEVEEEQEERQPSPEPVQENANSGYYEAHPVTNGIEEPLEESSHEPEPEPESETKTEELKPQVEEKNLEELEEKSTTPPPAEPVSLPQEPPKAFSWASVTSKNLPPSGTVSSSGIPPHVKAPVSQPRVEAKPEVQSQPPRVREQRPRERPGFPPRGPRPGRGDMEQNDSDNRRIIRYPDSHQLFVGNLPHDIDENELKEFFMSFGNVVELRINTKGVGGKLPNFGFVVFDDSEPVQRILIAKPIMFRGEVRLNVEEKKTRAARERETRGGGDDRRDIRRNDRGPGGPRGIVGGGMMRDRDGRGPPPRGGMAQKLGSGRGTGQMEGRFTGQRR
UniProt P30047: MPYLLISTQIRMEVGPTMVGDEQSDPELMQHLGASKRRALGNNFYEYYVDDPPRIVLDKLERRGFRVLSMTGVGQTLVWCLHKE
UniProt P35637: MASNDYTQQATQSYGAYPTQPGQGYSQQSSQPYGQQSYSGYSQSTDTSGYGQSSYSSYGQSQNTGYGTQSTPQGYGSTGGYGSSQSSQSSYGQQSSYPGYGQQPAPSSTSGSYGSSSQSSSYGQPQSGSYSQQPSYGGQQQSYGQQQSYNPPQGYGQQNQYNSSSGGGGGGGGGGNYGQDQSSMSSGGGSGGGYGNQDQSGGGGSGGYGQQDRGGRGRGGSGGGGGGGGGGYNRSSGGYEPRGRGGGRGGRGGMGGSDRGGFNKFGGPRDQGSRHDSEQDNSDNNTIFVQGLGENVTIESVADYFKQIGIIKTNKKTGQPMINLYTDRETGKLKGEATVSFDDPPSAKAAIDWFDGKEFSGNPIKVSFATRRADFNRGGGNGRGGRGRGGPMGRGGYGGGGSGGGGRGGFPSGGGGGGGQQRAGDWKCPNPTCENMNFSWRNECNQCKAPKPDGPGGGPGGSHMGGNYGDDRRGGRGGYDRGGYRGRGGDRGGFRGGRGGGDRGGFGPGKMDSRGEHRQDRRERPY
UniProt P02794, whole entry, looked up: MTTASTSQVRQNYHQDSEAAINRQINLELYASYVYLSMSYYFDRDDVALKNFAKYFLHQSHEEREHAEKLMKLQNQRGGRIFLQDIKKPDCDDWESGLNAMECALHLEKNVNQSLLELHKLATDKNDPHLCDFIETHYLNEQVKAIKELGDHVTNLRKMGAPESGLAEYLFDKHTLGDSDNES
UniProt Q96AE4: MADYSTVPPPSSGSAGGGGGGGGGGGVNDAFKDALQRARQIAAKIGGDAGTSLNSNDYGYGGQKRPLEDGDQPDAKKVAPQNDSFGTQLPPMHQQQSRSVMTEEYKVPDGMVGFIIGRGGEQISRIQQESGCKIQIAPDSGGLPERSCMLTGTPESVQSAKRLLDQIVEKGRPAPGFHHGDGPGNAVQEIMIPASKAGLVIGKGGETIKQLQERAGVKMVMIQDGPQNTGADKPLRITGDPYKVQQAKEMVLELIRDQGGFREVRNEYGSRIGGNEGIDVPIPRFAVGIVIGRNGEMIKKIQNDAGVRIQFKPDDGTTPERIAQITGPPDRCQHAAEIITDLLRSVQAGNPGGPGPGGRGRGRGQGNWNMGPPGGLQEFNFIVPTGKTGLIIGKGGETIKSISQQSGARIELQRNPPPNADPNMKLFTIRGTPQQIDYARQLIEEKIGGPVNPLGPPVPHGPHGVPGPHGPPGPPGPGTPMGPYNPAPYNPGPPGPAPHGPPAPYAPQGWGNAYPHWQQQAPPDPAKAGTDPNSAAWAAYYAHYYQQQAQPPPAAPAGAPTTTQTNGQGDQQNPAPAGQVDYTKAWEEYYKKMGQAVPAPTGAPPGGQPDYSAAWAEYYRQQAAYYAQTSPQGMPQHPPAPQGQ
UniProt Q6NT46: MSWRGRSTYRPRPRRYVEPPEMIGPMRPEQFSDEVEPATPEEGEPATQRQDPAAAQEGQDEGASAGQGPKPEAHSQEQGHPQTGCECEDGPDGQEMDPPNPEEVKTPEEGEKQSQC
UniProt O75223: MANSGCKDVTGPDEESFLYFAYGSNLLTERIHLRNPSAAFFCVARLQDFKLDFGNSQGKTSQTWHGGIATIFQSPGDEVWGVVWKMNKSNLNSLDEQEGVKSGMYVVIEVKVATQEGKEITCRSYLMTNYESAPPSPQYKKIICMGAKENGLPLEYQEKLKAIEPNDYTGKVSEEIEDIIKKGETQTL
UniProt Q9UET6: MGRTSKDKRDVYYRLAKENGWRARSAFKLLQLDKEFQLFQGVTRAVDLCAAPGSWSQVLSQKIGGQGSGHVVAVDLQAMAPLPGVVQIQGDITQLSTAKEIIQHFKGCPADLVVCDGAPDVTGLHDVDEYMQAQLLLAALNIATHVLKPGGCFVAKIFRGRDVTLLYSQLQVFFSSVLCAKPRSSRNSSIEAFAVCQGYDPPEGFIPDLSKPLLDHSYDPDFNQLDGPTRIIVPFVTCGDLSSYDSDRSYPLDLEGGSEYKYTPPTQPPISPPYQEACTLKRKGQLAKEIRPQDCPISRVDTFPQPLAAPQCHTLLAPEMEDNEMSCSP
UniProt Q14697: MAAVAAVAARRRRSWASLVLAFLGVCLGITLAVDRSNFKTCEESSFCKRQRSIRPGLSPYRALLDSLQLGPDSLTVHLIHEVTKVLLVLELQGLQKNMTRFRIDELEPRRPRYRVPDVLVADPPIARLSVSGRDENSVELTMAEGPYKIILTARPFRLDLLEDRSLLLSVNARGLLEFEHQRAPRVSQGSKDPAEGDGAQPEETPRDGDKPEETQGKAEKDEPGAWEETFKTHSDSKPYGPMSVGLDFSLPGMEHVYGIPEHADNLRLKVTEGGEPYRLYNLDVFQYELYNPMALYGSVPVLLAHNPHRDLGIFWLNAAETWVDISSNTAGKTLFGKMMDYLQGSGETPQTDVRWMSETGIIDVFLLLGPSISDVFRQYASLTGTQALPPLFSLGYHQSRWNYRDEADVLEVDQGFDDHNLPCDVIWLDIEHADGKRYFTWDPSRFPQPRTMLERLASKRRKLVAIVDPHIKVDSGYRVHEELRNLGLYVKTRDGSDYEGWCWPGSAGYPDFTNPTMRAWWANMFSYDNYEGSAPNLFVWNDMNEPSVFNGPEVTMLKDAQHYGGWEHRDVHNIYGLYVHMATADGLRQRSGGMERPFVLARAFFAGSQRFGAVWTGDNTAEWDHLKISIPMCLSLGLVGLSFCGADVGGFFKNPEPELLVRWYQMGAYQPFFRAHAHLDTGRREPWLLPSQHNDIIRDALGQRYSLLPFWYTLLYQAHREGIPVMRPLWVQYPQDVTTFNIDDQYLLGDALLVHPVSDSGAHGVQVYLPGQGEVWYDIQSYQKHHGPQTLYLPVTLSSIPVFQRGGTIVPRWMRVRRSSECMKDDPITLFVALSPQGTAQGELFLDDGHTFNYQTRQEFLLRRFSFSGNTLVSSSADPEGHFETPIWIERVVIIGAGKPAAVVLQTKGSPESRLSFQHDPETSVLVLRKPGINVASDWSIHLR
UniProt Q9UJY5: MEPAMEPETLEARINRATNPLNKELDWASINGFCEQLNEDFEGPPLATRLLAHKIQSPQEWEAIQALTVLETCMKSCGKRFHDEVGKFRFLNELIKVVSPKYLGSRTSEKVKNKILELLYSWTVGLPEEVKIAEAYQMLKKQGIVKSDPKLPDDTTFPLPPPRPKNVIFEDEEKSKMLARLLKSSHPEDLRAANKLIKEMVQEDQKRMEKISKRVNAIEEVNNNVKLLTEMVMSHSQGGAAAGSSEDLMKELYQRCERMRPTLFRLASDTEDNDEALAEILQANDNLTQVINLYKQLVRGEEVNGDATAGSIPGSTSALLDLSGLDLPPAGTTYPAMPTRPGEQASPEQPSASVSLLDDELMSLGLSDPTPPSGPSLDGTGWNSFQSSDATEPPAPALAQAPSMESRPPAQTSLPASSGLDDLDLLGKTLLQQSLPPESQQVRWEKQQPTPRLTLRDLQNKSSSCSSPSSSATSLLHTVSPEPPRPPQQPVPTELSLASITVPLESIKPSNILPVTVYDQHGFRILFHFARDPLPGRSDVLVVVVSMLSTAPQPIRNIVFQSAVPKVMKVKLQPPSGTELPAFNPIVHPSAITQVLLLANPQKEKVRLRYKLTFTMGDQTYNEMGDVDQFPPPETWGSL
UniProt Q96C23: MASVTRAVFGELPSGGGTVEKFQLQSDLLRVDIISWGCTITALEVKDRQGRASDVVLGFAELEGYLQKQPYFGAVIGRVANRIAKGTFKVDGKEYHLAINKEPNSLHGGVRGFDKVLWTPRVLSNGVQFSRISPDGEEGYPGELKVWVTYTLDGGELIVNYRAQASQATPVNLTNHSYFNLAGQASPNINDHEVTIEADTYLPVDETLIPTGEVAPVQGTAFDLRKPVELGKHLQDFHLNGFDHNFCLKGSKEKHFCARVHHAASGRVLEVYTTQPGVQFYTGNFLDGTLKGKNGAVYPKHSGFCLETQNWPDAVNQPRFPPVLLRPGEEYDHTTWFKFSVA

What follows are targets tested with Cc1ccc(C(=O)N(CCCN)[C@@H](c2nc3cc(Cl)ccc3c(=O)n2Cc2ccccc2)C(C)C)cc1 [ispinesib] (assay: log2 fold change, soluble protein after heating vs DMSO (PISA); higher = thermal stabilisation; K562 cells, 10 uM, 30 min; active = over 0.2 and 3.5 SD of the protein, either way, in both replicates (recomputed)).
Summary of the method: (§1)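 Quantification of soluble protein used TMTpro 16plex LC-MS/MS, with channel sums equalised. Samples were the supernatant after 21,000xg for 90 min of pooled aliquots from K562 cells (2×10^6 cells/mL) treated with 10 μM compound for 30 min, heated for 3 min over 48°C-58°C, and extracted in PBS with 0.5% NP-40 at 4°C. Values, from duplicates, describe thermal stability against control samples on a log2 fold-change scale.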

Target | log2 fold change
GCAT isoform 2 (UniProt O75600) | inactive: -0.044
GAR1 (UniProt Q9NY12) | inactive: -0.018
GATAD2A isoform 3 (UniProt Q86YP4) | inactive: -0.109
FXR1 (UniProt P51114) | inactive: -0.228
FYCO1 isoform 4 (UniProt Q9BQS8) | inactive: -0.011
G3BP2 (UniProt Q9UN86) | inactive: -0.279
GALNT7 (UniProt Q86SF2) | inactive: 0.031
GAN (UniProt Q9H2C0) | inactive: -0.1
FRG1 (UniProt Q14331) | inactive: -0.118
GGA3 (UniProt Q9NZ52) | inactive: 0.063
GCHFR (UniProt P30047) | inactive: 0.058
FUS (UniProt P35637) | inactive: -0.024
GALK2 (UniProt Q01415) | inactive: 0.073
GAMT (UniProt Q14353) | inactive: 0.081
FTH1 (UniProt P02794) | inactive: -0.077
GCLC (UniProt P48506) | inactive: -0.022
FUBP1 (UniProt Q96AE4) | inactive: -0.021

Target | log2 fold change
GAGE2A (UniProt Q6NT46) | inactive: -0.016
FXR2 (UniProt P51116) | inactive: -0.306
G3BP1 (UniProt Q13283) | inactive: -0.084
GEMIN4 (UniProt P57678) | inactive: -0.169
GGCT (UniProt O75223) | inactive: 0.027
FTSJ1 (UniProt Q9UET6) | inactive: -0.08
GALNT12 (UniProt Q8IXK2) | inactive: -0.028
GALNT5 (UniProt Q7Z7M9) | inactive: 0.084
GANAB isoform 2 (UniProt Q14697) | inactive: -0.016
GGA1 isoform 6 (UniProt Q9UJY5) | inactive: -0.016
GGH (UniProt Q92820) | inactive: 0
GALE (UniProt Q14376) | inactive: 0.11
GALNS (UniProt P34059) | inactive: 0.088
GHITM (UniProt Q9H3K2) | inactive: -0.06
G6PD isoform 2 (UniProt P11413) | inactive: 0.035
GALM (UniProt Q96C23) | inactive: 0
GFM1 (UniProt Q96RP9) | inactive: -0.074

Each target was assayed with Cc1ccc(NC(=O)c2ccc(CN3CC[C@H](N(C)C)C3)c(C(F)(F)F)c2)cc1Nc1nccc(-c2cncnc2)n1 [bafetinib] in the same assay as above.
Summary of the method: as §1

Target | log2 fold change
GCAT isoform 2 (UniProt O75600) | inactive: -0.064
GAR1 (UniProt Q9NY12) | inactive: 0.156
GATAD2A isoform 3 (UniProt Q86YP4) | inactive: 0.005
FXR1 (UniProt P51114) | inactive: 0.115
FYCO1 isoform 4 (UniProt Q9BQS8) | inactive: -0.105
G3BP2 (UniProt Q9UN86) | inactive: 0.214
GALNT7 (UniProt Q86SF2) | inactive: -0.041
GAN (UniProt Q9H2C0) | inactive: -0.009
FRG1 (UniProt Q14331) | inactive: 0.066
GGA3 (UniProt Q9NZ52) | inactive: -0.04
GCHFR (UniProt P30047) | inactive: -0.113
FUS (UniProt P35637) | inactive: 0.047
GALK2 (UniProt Q01415) | inactive: -0.034
GAMT (UniProt Q14353) | inactive: 0.017
FTH1 (UniProt P02794) | inactive: -0.089
GCLC (UniProt P48506) | inactive: -0.033
FUBP1 (UniProt Q96AE4) | inactive: -0.027

Target | log2 fold change
GAGE2A (UniProt Q6NT46) | inactive: -0.084
FXR2 (UniProt P51116) | inactive: 0.181
G3BP1 (UniProt Q13283) | inactive: 0.104
GEMIN4 (UniProt P57678) | inactive: 0.565
GGCT (UniProt O75223) | inactive: 0.005
FTSJ1 (UniProt Q9UET6) | inactive: 0.031
GALNT12 (UniProt Q8IXK2) | inactive: 0.009
GALNT5 (UniProt Q7Z7M9) | inactive: -0.039
GANAB isoform 2 (UniProt Q14697) | inactive: 0.021
GGA1 isoform 6 (UniProt Q9UJY5) | inactive: -0.051
GGH (UniProt Q92820) | inactive: -0.066
GALE (UniProt Q14376) | inactive: 0.006
GALNS (UniProt P34059) | inactive: 0.024
GHITM (UniProt Q9H3K2) | inactive: -0.055
G6PD isoform 2 (UniProt P11413) | inactive: 0.017
GALM (UniProt Q96C23) | inactive: -0.065
GFM1 (UniProt Q96RP9) | inactive: 0.023

Each target was assayed with Cc1cccc(CC(=O)N2CCc3c2ccc(-c2cn(C)c4ncnc(N)c24)c3F)n1 in the same assay as above.
Summary of the method: as §1

Target | log2 fold change
GCAT isoform 2 (UniProt O75600) | inactive: -0.018
GAR1 (UniProt Q9NY12) | inactive: -0.039
GATAD2A isoform 3 (UniProt Q86YP4) | inactive: 0.012
FXR1 (UniProt P51114) | inactive: -0.054
FYCO1 isoform 4 (UniProt Q9BQS8) | inactive: -0.052
G3BP2 (UniProt Q9UN86) | inactive: -0.034
GALNT7 (UniProt Q86SF2) | inactive: 0.043
GAN (UniProt Q9H2C0) | inactive: -0.024
FRG1 (UniProt Q14331) | inactive: 0
GGA3 (UniProt Q9NZ52) | inactive: 0.059
GCHFR (UniProt P30047) | inactive: -0.101
FUS (UniProt P35637) | inactive: -0.093
GALK2 (UniProt Q01415) | inactive: 0
GAMT (UniProt Q14353) | inactive: 0.056
FTH1 (UniProt P02794) | inactive: 0.015
GCLC (UniProt P48506) | inactive: -0.035
FUBP1 (UniProt Q96AE4) | inactive: 0.073

Target | log2 fold change
GAGE2A (UniProt Q6NT46) | inactive: -0.036
FXR2 (UniProt P51116) | inactive: -0.01
G3BP1 (UniProt Q13283) | inactive: -0.027
GEMIN4 (UniProt P57678) | inactive: 0.211
GGCT (UniProt O75223) | inactive: 0.017
FTSJ1 (UniProt Q9UET6) | inactive: -0.016
GALNT12 (UniProt Q8IXK2) | inactive: 0.022
GALNT5 (UniProt Q7Z7M9) | inactive: -0.036
GANAB isoform 2 (UniProt Q14697) | inactive: 0.015
GGA1 isoform 6 (UniProt Q9UJY5) | inactive: 0.026
GGH (UniProt Q92820) | inactive: -0.027
GALE (UniProt Q14376) | inactive: 0.044
GALNS (UniProt P34059) | inactive: -0.006
GHITM (UniProt Q9H3K2) | inactive: 0.015
G6PD isoform 2 (UniProt P11413) | inactive: 0.036
GALM (UniProt Q96C23) | inactive: 0.077
GFM1 (UniProt Q96RP9) | inactive: -0.001
